Experimental data: PubChem BioAssay AID1508588 (Peter MacCallum Cancer Centre, 2020)
Here is a random part of about 18,000 deposited reagents. Over the whole deposit, 790 (4.4%) got an active call. 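Calls rest on a combination of fold-change classes in drug and vehicle arms, not all shown here.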 Unmarked entries are inactive.

- Screen: 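Which gene losses make BRAF-mutant melanoma cells more responsive to vemurafenib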 (primary screen)
- Cell system: human WM266.4 melanoma cells (BRAF V600 mutant)
- Reagent: siRNA pool against human genes, 40 nM
- Duration: 96 h from transfection to read-out
- Treatment: vemurafenib 300 nM (about IC25), added 48 h after transfection, for 48 h; comparison arm got DMSO vehicle only
- Measurement: 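Ratios to non-targeting siRNA for cell gain, counted as DAPI nuclei after minus before drug and averaged over two replicates, and for absorbance-read medium lactate per cell; both binned into fold-change classes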
- Direction: cell gain with vemurafenib: higher = more cell gain than with non-targeting siRNA; lactate per cell with vemurafenib: higher = more lactate made per cell
- Active means: 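Enhancement is called by pairing each knock-down's vehicle-arm and drug-arm fold-change classes for viability or glycolysis; which class combinations qualify is not given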
- Meaning of the calls: active = enhances vemurafenib effect; inactive = no enhancement seen

| gene | cell gain with vemurafenib | lactate per cell with vemurafenib |
| --- | --- | --- |
| VPS13D (vacuolar protein sorting 13 homolog D) | 0.82 | 0.52 |
| CRYBG3 (crystallin beta-gamma domain containing 3) | 0.29 | 0.51 |
| TRPV2 | 0.39 | 0.72 |
| RNF25 (ring finger protein 25) | 1.03 | 0.67 |
| ANKHD1 (ankyrin repeat and KH domain containing 1) | 0.24 | 1.2 |
| LRRC24 (leucine rich repeat containing 24) | 0.7 | 0.91 |
| GKN2 (gastrokine 2) | 0.41 | 1.89 |
| RBM41 (RNA binding motif protein 41) | 0.66 | 1.17 |
| SPOCK2 | 0.39 | 0.96 |
| LRATD2 (LRAT domain containing 2) | 0.86 | 0.56 |
| RPS18 (ribosomal protein S18) | -0.17 | 3.25 |
| IL13RA1 (interleukin 13 receptor subunit alpha 1) | 0.27 | 1.07 |
| TGOLN2 (trans-golgi network protein 2) | 0.03 | 1.23 |
| PGAP6 (post-GPI attachment to proteins 6) | 0.08 | 1.37 |
| TPH2 (tryptophan hydroxylase 2) | 0.65 | 1.08 |
| PPP1R14C (protein phosphatase 1 regulatory inhibitor subunit 14C) | 0.46 | 0.33 |
| ARID1B (AT-rich interaction domain 1B) | 0.61 | 1 |
| TMEM245 (transmembrane protein 245) | 0.77 | 1.07 |
| RASD1 (ras related dexamethasone induced 1) | 0.37 | 1.15 |
| KCNN4 (potassium calcium-activated channel subfamily N member 4) | 0.87 | 1.07 |
| ZNF593 (zinc finger protein 593) | 0.62 | 0.8 |
| CCDC38 (coiled-coil domain containing 38) | 0.15 | 1.96 |
| DUSP6 (dual specificity phosphatase 6) | 1.2 | 0.74 |
| VEZT (vezatin, adherens junctions transmembrane protein) | 0.44 | 1.27 |
| MR1 (major histocompatibility complex, class I-related) | 0.86 | 0.82 |
| PGLYRP3 (peptidoglycan recognition protein 3) | 1.28 | 0.63 |
| PPAN-P2RY11 (PPAN-P2RY11 readthrough) | 0.78 | 1.21 |
| CCL5 (C-C motif chemokine ligand 5) | 0.69 | 0.94 |
| FBXO3 (F-box protein 3) | 0.47 (active) | 0.62 |
| ATP13A3 (ATPase 13A3) | 0.65 | 1.77 |
| SAMD13 (sterile alpha motif domain containing 13) | 0.57 | 0.93 |
| IRX6 (iroquois homeobox 6) | 0.7 | 0.84 |
| MED21 (mediator complex subunit 21) | 0.17 | 1.59 |
| SLC16A5 | 0.71 | 0.53 |
| NALF2 (NALCN channel auxiliary factor 2) | 1.07 | 0.9 |
| MPND (MPN domain containing) | 0.38 | 0.99 |
| CYP2B6 (cytochrome P450 family 2 subfamily B member 6) | 1.05 | 0.4 |
| TMIGD2 (transmembrane and immunoglobulin domain containing 2) | 0.62 | 1.8 |
| PLEK (pleckstrin) | 0.43 | 0.73 |
| PNKP (polynucleotide kinase 3'-phosphatase) | 0.25 | 1.6 |
| LILRB2 (leukocyte immunoglobulin like receptor B2) | 1.03 | 0.84 |
| POLDIP3 (DNA polymerase delta interacting protein 3) | 0.93 | 0.68 |
| STKLD1 (serine/threonine kinase like domain containing 1) | 0.76 | 0.82 |
| EPHX4 (epoxide hydrolase 4) | 0.69 | 0.78 |
| KRT4 (keratin 4) | 0.42 | 0.81 |
| TMEM64 (transmembrane protein 64) | 0.98 | 1.02 |
| COMT (catechol-O-methyltransferase) | 0.15 | 1.96 |
| KRT40 (keratin 40) | 0.51 | 0.52 |
| ADIG (adipogenin) | 0.79 | 1.14 |
| ATP6V1H (ATPase H+ transporting V1 subunit H) | 0.95 | 1.15 |
| ZNF611 (zinc finger protein 611) | 0.33 | 0.83 |
| MPST (mercaptopyruvate sulfurtransferase) | 0.05 | 1.72 |
| IFIT1B (interferon induced protein with tetratricopeptide repeats 1B) | 0.59 | 0.96 |
| IFNA21 (interferon alpha 21) | 0.16 | 0.71 |
| CSTL1 (cystatin like 1) | 0.84 | 0.56 |
| CEBPA (CCAAT enhancer binding protein alpha) | 0.94 | 1.06 |
| F2RL2 (coagulation factor II thrombin receptor like 2) | 0.76 | 0.58 |
| RAB10 (RAB10, member RAS oncogene family) | 0.42 | 0.96 |
| TRIM29 (tripartite motif containing 29) | 0.67 | 1.33 |
| INSIG2 (insulin induced gene 2) | 0.83 | 0.64 |
| PAG1 | 0.25 | 0.84 |
| NIPBL (NIPBL cohesin loading factor) | 0.21 | 2.19 |
| PSMB5 (proteasome 20S subunit beta 5) | 0.29 | 1.4 |
| WNT1 (Wnt family member 1) | 0.55 | 0.79 |
| OGT (O-linked N-acetylglucosamine (GlcNAc) transferase) | 0.55 | 0.78 |
| CDK5R2 (cyclin dependent kinase 5 regulatory subunit 2) | 0.7 | 0.87 |
| TCAF2 (TRPM8 channel associated factor 2) | 0.13 | 2.6 |
| STPG2 (sperm tail PG-rich repeat containing 2) | 1.14 | 0.53 |
| SLC15A1 | 0.65 | 1.25 |
| NKAIN4 (sodium/potassium transporting ATPase interacting 4) | 0.6 | 0.68 |
| PARP1 (poly(ADP-ribose) polymerase 1) | 0.68 | 1.05 |
| PRY (PTPN13 like Y-linked) | 0.15 (active) | 0.7 |
| ECEL1 (endothelin converting enzyme like 1) | 0.68 | 0.96 |
| UBL4A (ubiquitin like 4A) | 0.64 | 1.23 |
| HIBCH (3-hydroxyisobutyryl-CoA hydrolase) | 0.8 | 0.54 |
| PABPN1 (poly(A) binding protein nuclear 1) | 0.65 | 0.5 |
| GLIS2 (GLIS family zinc finger 2) | 0.65 | 0.85 |
| BPY2 (basic charge Y-linked 2) | 0.9 | 0.56 |
| NDUFB7 (NADH:ubiquinone oxidoreductase subunit B7) | 0.35 | 1.23 |
| CWC25 (CWC25 spliceosome associated protein) | 0.56 | 0.46 |
| PROS1 (protein S) | 0.64 | 1.15 |
| SPA17 (sperm autoantigenic protein 17) | 0.2 | 2.44 |
| MVB12B (multivesicular body subunit 12B) | 0.27 | 2.37 |
| YIPF4 (Yip1 domain family member 4) | 0.94 | 0.38 |
| EEF1E1 (eukaryotic translation elongation factor 1 epsilon 1) | 0.73 | 1.19 |
| LST1 (leukocyte specific transcript 1) | 0.25 | 2.44 |
| POLR2I (RNA polymerase II subunit I) | 0.21 | 1 |
| ZNF529 (zinc finger protein 529) | 0.19 | 1.75 |
| CALN1 (calneuron 1) | 0.33 | 1.74 |
| ECT2L (epithelial cell transforming 2 like) | 0.14 | 1.48 |
| PDCD2L (programmed cell death 2 like) | 0.77 | 0.96 |
| LIN37 (lin-37 DREAM MuvB core complex component) | 0.47 | 1.06 |
| PRRG2 (proline rich and Gla domain 2) | 0.66 | 0.6 |
| SIGLECL1 (SIGLEC family like 1) | 0.27 | 2.14 |
| RPL19 (ribosomal protein L19) | -0.09 | 1.36 |
| IRF2BP2 (interferon regulatory factor 2 binding protein 2) | 0.41 | 1.16 |
| SULT1C4 (sulfotransferase family 1C member 4) | 0.53 | 1.11 |
| PIGK (phosphatidylinositol glycan anchor biosynthesis class K) | 0.42 | 0.27 |
| FBXO22 (F-box protein 22) | 0.26 | 1.05 |
| PIK3CB | -0.19 | 1.58 |
| ASAH2 (N-acylsphingosine amidohydrolase 2) | 0.42 | 1.84 |
| BSND (barttin CLCNK type accessory subunit beta) | 0.5 | 0.88 |
| HTR4 (5-hydroxytryptamine receptor 4) | 0.5 | 1.27 |
| TRIM35 (tripartite motif containing 35) | 0.23 | 2.54 |
| NDUFB2 (NADH:ubiquinone oxidoreductase subunit B2) | 0.77 | 1.5 |
| RNASE7 (ribonuclease A family member 7) | 0.45 | 0.4 |
| CDHR3 (cadherin related family member 3) | 0.43 | 0.82 |

Active calls, among the entries above:
| gene | cell gain with vemurafenib | lactate per cell with vemurafenib |
| --- | --- | --- |
| FBXO3 (F-box protein 3) | 0.47 (active) | 0.62 |
| PRY (PTPN13 like Y-linked) | 0.15 (active) | 0.7 |
